Measured data: PubChem BioAssay AID1508597 (Cure First, 2020)
In all, the deposit lists about 2,100 reagents; below is a random part of them. 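Calls flag viability under 80% in either arm, not effects specific to rucaparib; the reference for percent is not stated.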 A reagent listed more than once was tested more than once; the source does not tell the runs apart. Not given: the 100% reference.

Test: 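Knock-downs altering ovarian cancer cell survival with or without PARP inhibitor rucaparib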 (primary screen)
Cells: human ovarian carcinoma lines grown from tumours: OCI-P5x (papillary serous) and OCI-C5x (clear cell)
Reagents: siRNA pool against human genes, 1.25 pmol siRNA per well
Timing: 72 h or 96 h, depending on the cell culture
Challenge: rucaparib 20 µM (about IC30) or vehicle, present until read-out
Read-out: 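Luminescent ATP-based viability assay read 72 or 96 h after transfection, depending on culture, given as normalised percent viability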
Scale: viability, normalised: higher = more viable cells remaining
Active means: 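a well counts as a hit if its normalised viability is under 80 percent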
Meaning of the calls: active = viability under 80%; inactive = viability 80% or more

gene knocked down	rucaparib or vehicle	cell line	technical replicate	viability, normalised (%)	outcome
ATAT1 (GeneID 79969)	Rucaparib	OCI-C5x (clear cell)	1	43.9	active
ATAT1 (GeneID 79969)	Rucaparib	OCI-C5x (clear cell)	2	33.2	active
ATAT1 (GeneID 79969)	Rucaparib	OCI-C5x (clear cell)	3	23.7	active
ATAT1 (GeneID 79969)	Rucaparib	OCI-P5x (serous)	1	65.2	active
ATAT1 (GeneID 79969)	Rucaparib	OCI-P5x (serous)	2	77.4	active
ATAT1 (GeneID 79969)	Rucaparib	OCI-P5x (serous)	3	74.4	active
ATAT1 (GeneID 79969)	Vehicle	OCI-C5x (clear cell)	1	38.8	active
ATAT1 (GeneID 79969)	Vehicle	OCI-C5x (clear cell)	2	42.3	active
ATAT1 (GeneID 79969)	Vehicle	OCI-C5x (clear cell)	3	40	active
ATAT1 (GeneID 79969)	Vehicle	OCI-P5x (serous)	1	81.9	inactive
ATAT1 (GeneID 79969)	Vehicle	OCI-P5x (serous)	2	77.7	active
ATAT1 (GeneID 79969)	Vehicle	OCI-P5x (serous)	3	73.7	active
MTA2 (GeneID 9219)	Rucaparib	OCI-C5x (clear cell)	1	43.2	active
MTA2 (GeneID 9219)	Rucaparib	OCI-C5x (clear cell)	2	59.3	active
MTA2 (GeneID 9219)	Rucaparib	OCI-C5x (clear cell)	3	48.6	active
MTA2 (GeneID 9219)	Rucaparib	OCI-P5x (serous)	1	43	active
MTA2 (GeneID 9219)	Rucaparib	OCI-P5x (serous)	2	60.6	active
MTA2 (GeneID 9219)	Rucaparib	OCI-P5x (serous)	3	50.5	active
MTA2 (GeneID 9219)	Vehicle	OCI-C5x (clear cell)	1	55.8	active
MTA2 (GeneID 9219)	Vehicle	OCI-C5x (clear cell)	2	57.4	active
MTA2 (GeneID 9219)	Vehicle	OCI-C5x (clear cell)	3	58.8	active
MTA2 (GeneID 9219)	Vehicle	OCI-P5x (serous)	1	49.5	active
MTA2 (GeneID 9219)	Vehicle	OCI-P5x (serous)	2	43.7	active
MTA2 (GeneID 9219)	Vehicle	OCI-P5x (serous)	3	52.5	active

In a second layout: 5 of the entries above
{"gene knocked down":"ATAT1 (GeneID 79969)","rucaparib or vehicle":"Vehicle","cell line":"OCI-P5x (serous)","technical replicate":"1","viability, normalised (%)":81.9,"outcome":"inactive"}
{"gene knocked down":"ATAT1 (GeneID 79969)","rucaparib or vehicle":"Vehicle","cell line":"OCI-P5x (serous)","technical replicate":"2","viability, normalised (%)":77.7,"outcome":"active"}
{"gene knocked down":"ATAT1 (GeneID 79969)","rucaparib or vehicle":"Vehicle","cell line":"OCI-P5x (serous)","technical replicate":"3","viability, normalised (%)":73.7,"outcome":"active"}
{"gene knocked down":"MTA2 (GeneID 9219)","rucaparib or vehicle":"Rucaparib","cell line":"OCI-C5x (clear cell)","technical replicate":"1","viability, normalised (%)":43.2,"outcome":"active"}
{"gene knocked down":"MTA2 (GeneID 9219)","rucaparib or vehicle":"Rucaparib","cell line":"OCI-C5x (clear cell)","technical replicate":"2","viability, normalised (%)":59.3,"outcome":"active"}

The results go on:
gene knocked down	rucaparib or vehicle	cell line	technical replicate	viability, normalised (%)	outcome
MACROH2A1 (GeneID 9555)	Rucaparib	OCI-C5x (clear cell)	1	33.5	active
MACROH2A1 (GeneID 9555)	Rucaparib	OCI-C5x (clear cell)	2	37.4	active
MACROH2A1 (GeneID 9555)	Rucaparib	OCI-C5x (clear cell)	3	38.7	active
MACROH2A1 (GeneID 9555)	Rucaparib	OCI-P5x (serous)	1	57.4	active
MACROH2A1 (GeneID 9555)	Rucaparib	OCI-P5x (serous)	2	57.6	active
MACROH2A1 (GeneID 9555)	Rucaparib	OCI-P5x (serous)	3	47.9	active
MACROH2A1 (GeneID 9555)	Vehicle	OCI-C5x (clear cell)	1	38.6	active
MACROH2A1 (GeneID 9555)	Vehicle	OCI-C5x (clear cell)	2	41.9	active
MACROH2A1 (GeneID 9555)	Vehicle	OCI-C5x (clear cell)	3	45.5	active
MACROH2A1 (GeneID 9555)	Vehicle	OCI-P5x (serous)	1	55.1	active
MACROH2A1 (GeneID 9555)	Vehicle	OCI-P5x (serous)	2	55.1	active
MACROH2A1 (GeneID 9555)	Vehicle	OCI-P5x (serous)	3	59.1	active
CHAF1B (GeneID 8208)	Rucaparib	OCI-C5x (clear cell)	1	36.8	active
CHAF1B (GeneID 8208)	Rucaparib	OCI-C5x (clear cell)	1	70.3	active
CHAF1B (GeneID 8208)	Rucaparib	OCI-C5x (clear cell)	2	32.7	active
CHAF1B (GeneID 8208)	Rucaparib	OCI-C5x (clear cell)	2	63	active
CHAF1B (GeneID 8208)	Rucaparib	OCI-C5x (clear cell)	3	35.7	active
CHAF1B (GeneID 8208)	Rucaparib	OCI-C5x (clear cell)	3	54.7	active
CHAF1B (GeneID 8208)	Rucaparib	OCI-P5x (serous)	1	84.2	inactive
CHAF1B (GeneID 8208)	Rucaparib	OCI-P5x (serous)	1	54.8	active
CHAF1B (GeneID 8208)	Rucaparib	OCI-P5x (serous)	2	91.5	inactive
CHAF1B (GeneID 8208)	Rucaparib	OCI-P5x (serous)	2	70.7	active
CHAF1B (GeneID 8208)	Rucaparib	OCI-P5x (serous)	3	74.6	active
CHAF1B (GeneID 8208)	Rucaparib	OCI-P5x (serous)	3	67.1	active
CHAF1B (GeneID 8208)	Vehicle	OCI-C5x (clear cell)	1	42.4	active
CHAF1B (GeneID 8208)	Vehicle	OCI-C5x (clear cell)	1	44.8	active
CHAF1B (GeneID 8208)	Vehicle	OCI-C5x (clear cell)	2	37.5	active
CHAF1B (GeneID 8208)	Vehicle	OCI-C5x (clear cell)	2	68.1	active
CHAF1B (GeneID 8208)	Vehicle	OCI-C5x (clear cell)	3	47.3	active
CHAF1B (GeneID 8208)	Vehicle	OCI-C5x (clear cell)	3	47.6	active
CHAF1B (GeneID 8208)	Vehicle	OCI-P5x (serous)	1	60.3	active
CHAF1B (GeneID 8208)	Vehicle	OCI-P5x (serous)	1	78.8	active
CHAF1B (GeneID 8208)	Vehicle	OCI-P5x (serous)	2	85.8	inactive
CHAF1B (GeneID 8208)	Vehicle	OCI-P5x (serous)	2	64	active
CHAF1B (GeneID 8208)	Vehicle	OCI-P5x (serous)	3	61.5	active
CHAF1B (GeneID 8208)	Vehicle	OCI-P5x (serous)	3	58.9	active
